± gives the standard deviation of the averaged measurements. Differences between knockout arms are mostly noise.
System: MDA-MB-231
Experiment: relative cell number vs DMSO control (72 h) (% of DMSO); higher = less growth inhibition (more cells)
Method: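 QMAP-Seq: a pool of 5 breast cancer cell lines (ZR-75-1, SKBR3, HCC-38, MDA-MB-231, BT-20), each carrying 12 doxycycline-inducible Cas9 sgRNA perturbations (11 knockouts plus non-targeting sgNT), was treated with compounds for 72 h at four 10-fold doses (10 nM-10 uM or 1 nM-1 uM range). Barcodes were amplified and sequenced, and cell number was interpolated from 293T spike-in standard curves. The result is expressed as % of the median of DMSO wells. Two biological replicates.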

COc1cc2c(cc1-c1c(C)noc1C)ncc1[nH]c(=O)n([C@H](C)c3ccccn3)c12 [IBET151]
Details | relative cell number
sgRNA knockout: sgATF3, 10 nM | 82 ± 12
sgRNA knockout: sgATF3, 100 nM | 87.4 ± 2.2
sgRNA knockout: sgATF3, 1000 nM | 51 ± 14
sgRNA knockout: sgATF3, 10000 nM | 21.7 ± 7.2
sgRNA knockout: sgATF4, 10 nM | 99.9 ± 7.9
sgRNA knockout: sgATF4, 100 nM | 86.6 ± 20
sgRNA knockout: sgATF4, 1000 nM | 60.3 ± 23
sgRNA knockout: sgATF4, 10000 nM | 28.5 ± 18
sgRNA knockout: sgATF6, 10 nM | 87.3 ± 12
sgRNA knockout: sgATF6, 100 nM | 82.2 ± 2.7
sgRNA knockout: sgATF6, 1000 nM | 45.3 ± 16
sgRNA knockout: sgATF6, 10000 nM | 19.9 ± 2.3
sgRNA knockout: sgATG7, 10 nM | 89.4 ± 4.2
sgRNA knockout: sgATG7, 100 nM | 78.5 ± 22
sgRNA knockout: sgATG7, 1000 nM | 42.4 ± 7.3
sgRNA knockout: sgATG7, 10000 nM | 19.2 ± 2.3
sgRNA knockout: sgERN1, 10 nM | 88.9 ± 3.7
sgRNA knockout: sgERN1, 100 nM | 77.4 ± 2
sgRNA knockout: sgERN1, 1000 nM | 36.5 ± 0.41
sgRNA knockout: sgERN1, 10000 nM | 28.1 ± 4.2
sgRNA knockout: sgHSF1, 10 nM | 71.9 ± 3.2
sgRNA knockout: sgHSF1, 100 nM | 92.6 ± 23
sgRNA knockout: sgHSF1, 1000 nM | 36.3 ± 1.1
sgRNA knockout: sgHSF1, 10000 nM | 27.2 ± 3.3
sgRNA knockout: sgHSF2, 10 nM | 72.9 ± 1.8
sgRNA knockout: sgHSF2, 100 nM | 86.8 ± 22
sgRNA knockout: sgHSF2, 1000 nM | 40.8 ± 6
sgRNA knockout: sgHSF2, 10000 nM | 23.9 ± 1.9
sgRNA knockout: sgKEAP1, 10 nM | 98.2 ± 13
sgRNA knockout: sgKEAP1, 100 nM | 87.7 ± 10
sgRNA knockout: sgKEAP1, 1000 nM | 42.3 ± 10
sgRNA knockout: sgKEAP1, 10000 nM | 16 ± 1
sgRNA knockout: sgNFE2L2, 10 nM | 87.3 ± 22
sgRNA knockout: sgNFE2L2, 100 nM | 63.4 ± 12
sgRNA knockout: sgNFE2L2, 1000 nM | 39.7 ± 5.8
sgRNA knockout: sgNFE2L2, 10000 nM | 21.2 ± 4
sgRNA knockout: sgSLC35F2, 10 nM | 88.3 ± 2.7
sgRNA knockout: sgSLC35F2, 100 nM | 49.1 ± 1.8
sgRNA knockout: sgSLC35F2, 1000 nM | 33.8 ± 1.9
sgRNA knockout: sgSLC35F2, 10000 nM | 18.2 ± 1.6
sgRNA knockout: sgXBP1, 10 nM | 79.78 ± 0.68
sgRNA knockout: sgXBP1, 100 nM | 74.4 ± 22
sgRNA knockout: sgXBP1, 1000 nM | 36.5 ± 6.1
sgRNA knockout: sgXBP1, 10000 nM | 19 ± 3.5

O=C(/C=C/c1ccc(O)cc1)c1ccc(O)cc1O [Isoliquiritigenin]
Details | relative cell number
sgRNA knockout: sgATF3, 10 nM | 92.8 ± 14
sgRNA knockout: sgATF3, 100 nM | 105 ± 21
sgRNA knockout: sgATF3, 1000 nM | 95.3 ± 1.9
sgRNA knockout: sgATF3, 10000 nM | 91.9 ± 13
sgRNA knockout: sgATF4, 10 nM | 88.7 ± 14
sgRNA knockout: sgATF4, 100 nM | 124 ± 37
sgRNA knockout: sgATF4, 1000 nM | 92.1 ± 29
sgRNA knockout: sgATF4, 10000 nM | 114 ± 19
sgRNA knockout: sgATF6, 10 nM | 98.6 ± 14
sgRNA knockout: sgATF6, 100 nM | 84.4 ± 8.9
sgRNA knockout: sgATF6, 1000 nM | 97.2 ± 2.9
sgRNA knockout: sgATF6, 10000 nM | 107 ± 12
sgRNA knockout: sgATG7, 10 nM | 105 ± 12
sgRNA knockout: sgATG7, 100 nM | 106 ± 6.1
sgRNA knockout: sgATG7, 1000 nM | 112 ± 1.7
sgRNA knockout: sgATG7, 10000 nM | 76.8 ± 12
sgRNA knockout: sgERN1, 10 nM | 111 ± 4
sgRNA knockout: sgERN1, 100 nM | 90.62 ± 0.79
sgRNA knockout: sgERN1, 1000 nM | 93.4 ± 25
sgRNA knockout: sgERN1, 10000 nM | 86.8 ± 1.1
sgRNA knockout: sgHSF1, 10 nM | 98.4 ± 15
sgRNA knockout: sgHSF1, 100 nM | 83.89 ± 0.79
sgRNA knockout: sgHSF1, 1000 nM | 92.9 ± 1.8
sgRNA knockout: sgHSF1, 10000 nM | 91.9 ± 7.4
sgRNA knockout: sgHSF2, 10 nM | 110 ± 4.4
sgRNA knockout: sgHSF2, 100 nM | 113 ± 25
sgRNA knockout: sgHSF2, 1000 nM | 108 ± 41
sgRNA knockout: sgHSF2, 10000 nM | 88.5 ± 4.5
sgRNA knockout: sgKEAP1, 10 nM | 87 ± 1.4
sgRNA knockout: sgKEAP1, 100 nM | 97.7 ± 22
sgRNA knockout: sgKEAP1, 1000 nM | 93.7 ± 7.5
sgRNA knockout: sgKEAP1, 10000 nM | 83.4 ± 3.6
sgRNA knockout: sgNFE2L2, 10 nM | 84.1 ± 6.5
sgRNA knockout: sgNFE2L2, 100 nM | 93.1 ± 29
sgRNA knockout: sgNFE2L2, 1000 nM | 80.2 ± 24
sgRNA knockout: sgNFE2L2, 10000 nM | 88.3 ± 12
sgRNA knockout: sgSLC35F2, 10 nM | 98.6 ± 5.4
sgRNA knockout: sgSLC35F2, 100 nM | 103 ± 9
sgRNA knockout: sgSLC35F2, 1000 nM | 89.61 ± 0.095
sgRNA knockout: sgSLC35F2, 10000 nM | 87 ± 37
sgRNA knockout: sgXBP1, 10 nM | 117 ± 9.1
sgRNA knockout: sgXBP1, 100 nM | 101 ± 16
sgRNA knockout: sgXBP1, 1000 nM | 92.5 ± 4.6
sgRNA knockout: sgXBP1, 10000 nM | 93.8 ± 3.5

COc1cc2nccc(Oc3ccc(NC(=O)NC4CC4)c(Cl)c3)c2cc1C(N)=O [Lenvatinib]
Details | relative cell number
sgRNA knockout: sgATF3, 10 nM | 97.9 ± 9.8
sgRNA knockout: sgATF3, 100 nM | 95.1 ± 26
sgRNA knockout: sgATF3, 1000 nM | 124 ± 12
sgRNA knockout: sgATF3, 10000 nM | 91.4 ± 12
sgRNA knockout: sgATF4, 10 nM | 118 ± 6.8
sgRNA knockout: sgATF4, 100 nM | 107 ± 5.6
sgRNA knockout: sgATF4, 1000 nM | 93.5 ± 31
sgRNA knockout: sgATF4, 10000 nM | 96.27 ± 0.51
sgRNA knockout: sgATF6, 10 nM | 90.87 ± 0.4
sgRNA knockout: sgATF6, 100 nM | 90.9 ± 2.5
sgRNA knockout: sgATF6, 1000 nM | 85.7 ± 1.3
sgRNA knockout: sgATF6, 10000 nM | 105 ± 4.9
sgRNA knockout: sgATG7, 10 nM | 76.2 ± 4.1
sgRNA knockout: sgATG7, 100 nM | 102 ± 29
sgRNA knockout: sgATG7, 1000 nM | 84.1 ± 6.3
sgRNA knockout: sgATG7, 10000 nM | 92.6 ± 5.2
sgRNA knockout: sgERN1, 10 nM | 96.9 ± 12
sgRNA knockout: sgERN1, 100 nM | 103 ± 50
sgRNA knockout: sgERN1, 1000 nM | 98.9 ± 5.7
sgRNA knockout: sgERN1, 10000 nM | 81.6 ± 6.8
sgRNA knockout: sgHSF1, 10 nM | 98.7 ± 17
sgRNA knockout: sgHSF1, 100 nM | 97.4 ± 12
sgRNA knockout: sgHSF1, 1000 nM | 125.4 ± 1.2
sgRNA knockout: sgHSF1, 10000 nM | 106 ± 12
sgRNA knockout: sgHSF2, 10 nM | 86.4 ± 18
sgRNA knockout: sgHSF2, 100 nM | 97.2 ± 9.5
sgRNA knockout: sgHSF2, 1000 nM | 95.8 ± 14
sgRNA knockout: sgHSF2, 10000 nM | 105 ± 30
sgRNA knockout: sgKEAP1, 10 nM | 90.3 ± 17
sgRNA knockout: sgKEAP1, 100 nM | 110 ± 1.1
sgRNA knockout: sgKEAP1, 1000 nM | 108 ± 5.1
sgRNA knockout: sgKEAP1, 10000 nM | 90.4 ± 32
sgRNA knockout: sgNFE2L2, 10 nM | 100 ± 10
sgRNA knockout: sgNFE2L2, 100 nM | 120 ± 6.3
sgRNA knockout: sgNFE2L2, 1000 nM | 117 ± 20
sgRNA knockout: sgNFE2L2, 10000 nM | 120 ± 22
sgRNA knockout: sgSLC35F2, 10 nM | 101 ± 2.3
sgRNA knockout: sgSLC35F2, 100 nM | 97 ± 31
sgRNA knockout: sgSLC35F2, 1000 nM | 106 ± 7.9
sgRNA knockout: sgSLC35F2, 10000 nM | 88.4 ± 9
sgRNA knockout: sgXBP1, 10 nM | 100 ± 8
sgRNA knockout: sgXBP1, 100 nM | 104 ± 5.2
sgRNA knockout: sgXBP1, 1000 nM | 108 ± 7.3
sgRNA knockout: sgXBP1, 10000 nM | 96.9 ± 11
